The values that follow come from PubChem BioAssay AID2685 (National Center for Advancing Translational Sciences (NCATS), 2010).

Structures are written as SMILES. The list shows a part of the results. These are further read-outs of the screen, such as a control signal, another cell line or another target. No call is given for them. Compounds called inactive in the main read-out are mostly missing here. Potencies come from curve fits of mixed quality, noted in brackets.

The assay is described as follows: qHTS Assay for Lipid Storage Modulators in Drosophila S3 Cells.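 For cell number change: cells counted by Cell Tracker Red CMTPX staining in the red channel.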 To be noted: BODIPY lipid droplet fluorescence, 18-24 h; for cell number change: measured here: cell count max response, cells fed with added oleic acid. An outline of the steps:
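Laser-scanning cytometry quantifies lipid droplet accumulation (500–530 nm total intensity; droplet/cell object ratio) in oleic acid-fed (400 uM added) Drosophila S3 cells treated with a concentration series. 20 uM Triacsin C defined 100% inhibition.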
In general terms: Quantitative high-throughput screening tests each substance at several concentrations.

[1] abbreviates: measured here: lipid fluorescence (Fed channel) AC50, cells fed with added oleic acid.
[2] abbreviates: measured here: cell number channel AC50, cells fed with added oleic acid.

For `COc1ccc(Cl)cc1-n1c(=S)sc2c(=O)[nH]c(SCC(=O)NCCC(C)C)nc21`, the cell number change turned out to be 8.33%. For the same compound, the AC50 (in general, the midpoint of the concentration-response curve, whichever way the signal moves) under setting [1] is 29.1 µM [rising, single point].

In the case of `Cc1ccc(-c2csc3nc(SCC(=O)Nc4ccc(Cl)c(C(=O)O)c4)[nH]c(=O)c23)cc1`, the cell number change is 26.3%. Besides, under setting [1], the AC50 was 32.6 µM [rising, single point].

Take `Cc1ccc(S(=O)(=O)c2cc3ccccc3oc2=Nc2ccc3c(c2)OCCO3)cc1`: the cell number change was -8.15%. Further, under setting [1], the AC50 was 0.92 µM [rising, full curve, poor fit].

On to `Cc1ccc(NC(=S)N(CCCN2CCC(C)CC2)Cc2ccco2)cc1`, for which the cell number change was -9.68%. Moreover, the AC50 under setting [2] was 5.8 µM [rising, single point]. In addition, the half-maximal activity concentration (AC50) under setting [1] was 6.51 µM [rising, single point].

`COc1ccc2c(COC(=O)c3cccc(S(=O)(=O)NCC(C)C)c3)cc(=O)oc2c1`: the cell number change was 5.56%.

For `Cc1noc(N)c1C(=O)Nc1ccccc1F`, the cell number change is -13.8%. For the same compound, under setting [2], the AC50 was 6.51 µM [falling, single point].

For the compound `CCn1c(SCC(=O)N2CCCc3ccccc32)nc2cccnc21`, the cell number change was determined as 164%. In addition, the AC50 under setting [2] is 7.31 µM [rising, partial curve]. Besides, the AC50 under setting [1] was 9.2 µM [rising, partial curve].

For `Cc1ccc(NC(=O)CNC(=O)N2CC(=O)Nc3ccccc32)cc1F`, the cell number change was -27%. Moreover, the AC50 under setting [2] is 0.00461 µM [falling, full curve, poor fit].

As to `COC(=O)c1ccccc1NC(=O)CCCN1C(=O)C(c2ccccc2)Oc2cccnc21` (stereo not given), the cell number change was -16%.

Take `CCOC(=O)c1ccc(NC(=S)N2CCSC2c2ccc(Br)cc2)cc1` (stereo not given): the cell number change is -83.3%. Also, under setting [2], the concentration at half-maximal activity (AC50) is 29.1 µM [falling, single point]. For the same compound, the AC50 under setting [1] is 2.31 µM [falling, partial curve].

For the compound `Cc1ccc(NC(=O)N/C=C/c2ccco2)cc1C`, the cell number change turned out to be 151%. Besides, the AC50 under setting [1] is 20.6 µM [rising, partial curve].

On to `OCCN(Cc1ccccc1)Cc1cccc(C(F)(F)F)c1`, for which the cell number change was -44%. Further, the AC50 under setting [2] is 18.4 µM [falling, single point]. Also, the concentration at half-maximal activity (AC50) under setting [1] was 16.4 µM [falling, partial curve].

Turning to `COc1cccc(CN(C)Cc2nc3cc(C(F)(F)F)ccc3c(=O)[nH]2)c1`, the cell number change was -18.5%.

Regarding `CCN(CC(=O)Nc1cccc(F)c1)Cc1nc2ccccc2c(=O)[nH]1`, the cell number change was 32.2%. In addition, the AC50 under setting [2] is 0.461 µM [rising, full curve, poor fit].

As for `CSc1ncccc1C(=O)NCCc1ccc(S(N)(=O)=O)cc1`, the cell number change came to 0.901%. In addition, under setting [1], the AC50 is 29.1 µM [falling, single point].

Consider `O=C(NCc1ccccc1Br)C1CCCO1` (stereo not given), for which the cell number change amounted to 23.8%. In addition, the half-maximal activity concentration (AC50) under setting [1] is 0.116 µM [falling, full curve, poor fit].

With `Cc1cc(C)cc(OCc2nnc(SCC(=O)N3CCN(c4ccccc4)CC3)o2)c1`, the half-maximal activity concentration (AC50) under setting [1] was 0.58 µM [rising, single point].

In the case of `CCOC(=O)C1=C(Cn2cnc3ccccc32)NC(=O)NC1c1cc(C)ccc1C` (stereo not given), the cell number change was -20.3%. Further, under setting [1], the half-maximal activity concentration (AC50) is 8.2 µM [falling, partial curve, poor fit].

On to `N#C/C(C(N)=O)=c1/ccc2c(c1)N1C3=C(CCCC3)CC3CCCCC31N=2` (stereo not given), for which the cell number change was -3.62%. For the same compound, under setting [1], the AC50 was 0.13 µM [rising, full curve, poor fit].

Take `COc1ccc(C)cc1NC(=O)c1cccc(C(=O)Nc2cc(C)ccc2OC)c1`: the cell number change is -31.4%. Further, under setting [2], the half-maximal activity concentration (AC50) is 13 µM [falling, single point]. Further, under setting [1], the AC50 is 3.66 µM [falling, full curve].

`N#CC(C#N)=C1C=CC=CN1/C(=C\c1ccccc1Cl)C(=O)c1ccccc1`: the cell number change was -59.3%. Also, under setting [2], the half-maximal activity concentration (AC50) was 13 µM [falling, partial curve]. Also, under setting [1], the AC50 was 8.2 µM [falling, partial curve].

With `Cc1n[nH]c(C)c1CCNCc1ccc(OCC(O)CN2CCCCC2)cc1` (stereo not given), the cell number change came out at 11.3%. Moreover, the half-maximal activity concentration (AC50) under setting [1] is 4.11 µM [falling, single point].

Consider `Cc1ccc(S(=O)(=O)c2nc(NN(C)C)sc2Cl)cc1`, for which the cell number change is -17.1%.

In the case of `COc1cccc(N2CCN(C3CCCC(C)C3)CC2)c1` (stereo not given), the cell number change is -103%. The AC50 under setting [2] was 32.6 µM [falling, single point]. The AC50 under setting [1] was 29.1 µM [falling, single point].

For `CCN(CC)CCNC(=O)c1ccc2c(c1)NC(=O)c1ccccc1S2`, the cell number change stood at 31.5%. In addition, the half-maximal activity concentration (AC50) under setting [2] is 29.1 µM [rising, single point]. The AC50 under setting [1] was 29.1 µM [rising, single point].

As for `CCN(c1ccccc1)S(=O)(=O)c1ccc(OC)c(OC)c1`, the AC50 under setting [1] was 1.46 µM [rising, full curve].

With `Clc1ccc(-c2noc(CN3CCN(c4ccccc4)CC3)n2)cc1`, the cell number change is -23.4%. The AC50 under setting [2] is 1.16 µM [falling, full curve, poor fit].

As to `O=C(COC(=O)c1cc[n+]([O-])cc1)Nc1cc([N+](=O)[O-])ccc1Cl`, the cell number change was 2%.

Take `CCOc1ccccc1N(C)C(=O)Cn1ncc2c([nH]c3ccccc32)c1=O`: the cell number change turned out to be 14.9%. For the same compound, the concentration at half-maximal activity (AC50) under setting [1] was 29.1 µM [rising, single point].

For `CCOC(=O)C1CCCN(CC(=O)/C=C2/N(C)c3ccccc3C2(C)C)C1` (stereo not given), the cell number change is -16.1%.

Regarding `c1ccc(-c2nc(NCC3CCCO3)c3oc4ccccc4c3n2)cc1` (stereo not given), the concentration at half-maximal activity (AC50) was 2.31 µM [rising, partial curve] under setting [2] and 4.61 µM [rising, full curve] under setting [1].

As to `Fc1ccc(NC(=S)NNc2ncc(C(F)(F)F)cc2Cl)c(F)c1`, the cell number change is -65.1%. Further, under setting [2], the AC50 is 25.1 µM [falling, single point]. Further, under setting [1], the AC50 was 25.1 µM [falling, partial curve, poor fit].

As to `COc1ccccc1NCC(O)COc1ccc(C(C)(C)C)cc1` (stereo not given), the cell number change is -68%. Also, under setting [2], the half-maximal activity concentration (AC50) is 16.4 µM [falling, partial curve, poor fit]. The AC50 under setting [1] was 16.4 µM [falling, single point].

Turning to `COc1cc(CN2CCN(c3cccc(C)c3C)CC2)cc([N+](=O)[O-])c1O`, the cell number change was determined as 3.01%. Also, the AC50 under setting [1] is 6.51 µM [falling, single point].

Consider `CC(C)(C)NC(=S)N1CCC(C(=O)c2ccc(F)cc2)CC1`, for which the cell number change worked out at 2.7%.

As to `CN1CCN(S(=O)(=O)c2cccc(C(=O)N(C)C(c3ccccc3)c3ccccc3)c2)CC1`, the cell number change was 33.2%. Under setting [2], the AC50 was 20.6 µM [rising, single point].

Regarding `O=C(CCC(=O)Nc1ccccc1Cl)NN=C1CCCC1`, the cell number change is -1.42%. Also, the AC50 under setting [1] was 6.51 µM [falling, single point].
